Source: ChEMBL document CHEMBL3988442, “University of Dundee, Small-Polar-MMV Screening Library” (2021).

By UniProt entry, the sequences of proteins in these tests, tags left out. Residues count along the entry.
UniProt P9WPC5, whole entry: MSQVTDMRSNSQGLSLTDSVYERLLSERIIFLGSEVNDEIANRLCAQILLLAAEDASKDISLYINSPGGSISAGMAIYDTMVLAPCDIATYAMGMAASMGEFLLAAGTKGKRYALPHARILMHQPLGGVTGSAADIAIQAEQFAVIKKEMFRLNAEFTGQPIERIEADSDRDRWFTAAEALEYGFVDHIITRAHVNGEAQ
UniProt P9WPC3, whole entry partner: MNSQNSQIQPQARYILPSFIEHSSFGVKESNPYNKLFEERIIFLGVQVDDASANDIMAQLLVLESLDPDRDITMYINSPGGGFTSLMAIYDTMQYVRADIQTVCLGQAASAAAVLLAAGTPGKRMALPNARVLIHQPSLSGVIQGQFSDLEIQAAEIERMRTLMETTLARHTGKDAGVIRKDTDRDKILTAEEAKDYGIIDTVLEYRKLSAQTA
UniProt I6X8D2, whole entry: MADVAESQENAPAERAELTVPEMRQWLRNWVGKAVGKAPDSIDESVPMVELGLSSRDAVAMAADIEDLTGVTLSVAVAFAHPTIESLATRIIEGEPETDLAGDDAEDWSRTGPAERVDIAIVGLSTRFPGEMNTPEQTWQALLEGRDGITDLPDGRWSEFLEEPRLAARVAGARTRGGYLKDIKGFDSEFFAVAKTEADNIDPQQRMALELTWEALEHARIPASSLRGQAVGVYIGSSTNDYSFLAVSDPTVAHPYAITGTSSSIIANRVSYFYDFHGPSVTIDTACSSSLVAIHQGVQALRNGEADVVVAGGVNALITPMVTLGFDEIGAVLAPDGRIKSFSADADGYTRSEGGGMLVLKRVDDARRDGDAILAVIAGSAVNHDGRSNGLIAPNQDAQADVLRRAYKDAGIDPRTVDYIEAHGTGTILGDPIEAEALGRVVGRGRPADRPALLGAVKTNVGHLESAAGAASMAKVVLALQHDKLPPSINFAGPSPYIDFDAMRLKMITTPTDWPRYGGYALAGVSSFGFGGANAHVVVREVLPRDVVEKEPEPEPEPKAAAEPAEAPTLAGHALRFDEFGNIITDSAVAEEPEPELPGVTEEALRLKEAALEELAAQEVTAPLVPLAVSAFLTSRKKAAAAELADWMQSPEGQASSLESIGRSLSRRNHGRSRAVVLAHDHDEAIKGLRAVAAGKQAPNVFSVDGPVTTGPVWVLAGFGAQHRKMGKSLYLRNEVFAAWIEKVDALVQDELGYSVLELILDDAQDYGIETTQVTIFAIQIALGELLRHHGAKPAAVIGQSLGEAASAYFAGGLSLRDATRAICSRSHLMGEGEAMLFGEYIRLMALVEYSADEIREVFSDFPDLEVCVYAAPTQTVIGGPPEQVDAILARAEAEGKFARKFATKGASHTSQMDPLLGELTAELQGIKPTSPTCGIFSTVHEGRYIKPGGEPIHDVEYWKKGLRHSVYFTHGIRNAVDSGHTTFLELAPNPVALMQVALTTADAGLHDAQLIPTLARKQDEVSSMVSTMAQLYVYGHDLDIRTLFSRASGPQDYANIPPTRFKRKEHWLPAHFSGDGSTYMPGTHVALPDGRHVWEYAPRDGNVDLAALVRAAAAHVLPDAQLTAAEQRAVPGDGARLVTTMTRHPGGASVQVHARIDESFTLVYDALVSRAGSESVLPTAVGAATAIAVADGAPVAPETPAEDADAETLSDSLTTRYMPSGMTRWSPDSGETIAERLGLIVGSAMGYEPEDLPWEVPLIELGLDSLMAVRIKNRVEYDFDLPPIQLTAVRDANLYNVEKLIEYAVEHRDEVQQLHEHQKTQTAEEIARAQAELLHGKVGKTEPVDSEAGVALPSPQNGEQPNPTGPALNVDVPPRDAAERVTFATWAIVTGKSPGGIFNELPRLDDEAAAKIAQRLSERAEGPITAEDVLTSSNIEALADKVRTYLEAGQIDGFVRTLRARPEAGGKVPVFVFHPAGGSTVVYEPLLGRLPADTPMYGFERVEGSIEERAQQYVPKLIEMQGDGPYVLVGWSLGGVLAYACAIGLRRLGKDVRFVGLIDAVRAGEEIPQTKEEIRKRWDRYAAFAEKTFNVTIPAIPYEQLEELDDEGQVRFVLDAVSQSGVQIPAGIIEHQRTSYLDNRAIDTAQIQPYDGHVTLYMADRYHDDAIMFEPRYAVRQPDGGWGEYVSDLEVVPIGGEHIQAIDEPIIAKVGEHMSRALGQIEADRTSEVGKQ
UniProt P9WNZ1, whole entry: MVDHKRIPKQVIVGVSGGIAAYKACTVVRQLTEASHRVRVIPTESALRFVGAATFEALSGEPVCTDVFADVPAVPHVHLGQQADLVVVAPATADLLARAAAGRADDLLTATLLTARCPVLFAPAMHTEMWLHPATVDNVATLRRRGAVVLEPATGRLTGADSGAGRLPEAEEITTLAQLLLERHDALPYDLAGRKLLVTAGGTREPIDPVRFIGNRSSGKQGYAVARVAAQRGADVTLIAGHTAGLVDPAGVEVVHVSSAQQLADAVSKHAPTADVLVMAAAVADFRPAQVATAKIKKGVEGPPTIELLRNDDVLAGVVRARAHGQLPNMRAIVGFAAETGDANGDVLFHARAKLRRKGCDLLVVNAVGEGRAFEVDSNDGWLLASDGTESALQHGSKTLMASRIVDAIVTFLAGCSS
UniProt A4I591, 1-473: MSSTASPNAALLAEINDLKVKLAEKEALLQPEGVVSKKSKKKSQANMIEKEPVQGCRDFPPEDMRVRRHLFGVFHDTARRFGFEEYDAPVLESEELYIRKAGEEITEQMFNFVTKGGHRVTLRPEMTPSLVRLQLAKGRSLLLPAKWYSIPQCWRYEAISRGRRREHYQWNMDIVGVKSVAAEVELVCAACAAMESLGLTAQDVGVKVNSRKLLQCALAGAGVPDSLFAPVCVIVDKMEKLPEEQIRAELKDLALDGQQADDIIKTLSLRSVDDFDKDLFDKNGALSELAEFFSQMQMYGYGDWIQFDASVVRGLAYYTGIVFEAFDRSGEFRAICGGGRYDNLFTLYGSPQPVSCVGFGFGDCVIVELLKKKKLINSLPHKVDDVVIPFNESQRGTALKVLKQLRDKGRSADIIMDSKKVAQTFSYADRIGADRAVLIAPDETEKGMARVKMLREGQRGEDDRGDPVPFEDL
UniProt Q4DA54, 1-478: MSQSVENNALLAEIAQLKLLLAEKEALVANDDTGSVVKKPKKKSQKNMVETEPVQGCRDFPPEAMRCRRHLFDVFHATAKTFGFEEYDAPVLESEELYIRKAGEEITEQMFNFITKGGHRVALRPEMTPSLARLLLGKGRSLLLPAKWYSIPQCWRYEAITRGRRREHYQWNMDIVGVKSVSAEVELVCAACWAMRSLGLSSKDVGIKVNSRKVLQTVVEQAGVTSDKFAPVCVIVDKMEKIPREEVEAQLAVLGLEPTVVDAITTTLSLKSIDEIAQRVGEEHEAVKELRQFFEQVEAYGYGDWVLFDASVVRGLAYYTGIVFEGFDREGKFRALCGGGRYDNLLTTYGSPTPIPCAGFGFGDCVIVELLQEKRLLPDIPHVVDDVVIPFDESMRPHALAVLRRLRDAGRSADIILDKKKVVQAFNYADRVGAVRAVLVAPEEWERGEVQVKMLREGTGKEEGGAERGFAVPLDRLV

A: 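ClpP1P2, Mycobacterium tuberculosis (UniProt P9WPC5 and UniProt P9WPC3). Protease assay of ClpP1P2, read by the AMC dye that it sets free. Tested at 50 µM. Direction is inferred from only a few compounds that gave an IC50; most scored high, so higher reads as stronger inhibition. Most other retested compounds had strongly negative values. Size under these conditions: about 69,000 compounds, about 10 of them at 50% or above in at least one test.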
B: 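Enzyme assay of the thioesterase domain of polyketide synthase 13; the read-out is not stated. Target: Polyketide synthase Pks13, Mycobacterium tuberculosis (UniProt I6X8D2). Compounds at 30 µM. Higher reads as stronger inhibition (inferred from which compounds were picked for retests). Size under these conditions: about 67,000 compounds, about 300 of them at 50% or above in at least one test.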
C: 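Enzyme assay of CoaBC with a phosphate dye (Biomol Green) read at 650 nm. Target: Coenzyme A biosynthesis protein CoaBC, Mycobacterium tuberculosis (UniProt P9WNZ1). Tested at 30 µM. Direction is inferred from only a few compounds that gave an IC50; most scored high, so higher reads as stronger inhibition. Most strong results did not repeat in a second test. Size under these conditions: about 67,000 compounds, about 40 of them at 50% or above in at least one test.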
D: 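Histidine-tRNA ligase, Leishmania infantum (UniProt A4I591). Enzyme assay of histidyl-tRNA synthetase; the read-out is not stated. Concentration: 30 µM. Direction is inferred from retests: higher values go with stronger inhibition. The assay is labelled LdHisRS but filed under L. infantum. About 69,000 compounds were tested under these conditions; 0.6% (about 410) showed 50% or more at least once.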
E: 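Histidine-tRNA ligase, Trypanosoma cruzi CL Brener (UniProt Q4DA54). Enzyme assay of histidyl-tRNA synthetase; the read-out is not stated. Concentration: 30 µM. The record gives no direction; compounds that gave an IC50 in retests scored well above the rest, so higher reads as stronger inhibition. Size under these conditions: about 69,000 compounds, about 31 of them at 50% or above in at least one test.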

Each number is a percent effect as filed. The controls that fix the scale are not given in the record; negative values are as filed. The compounds are a random part of those screened. A dash means the value is not listed here; it may have been measured.

Compound | A | B | C | D | E
CN(Cc1ccc(Cl)s1)C(=O)Nc1ccc(N(C)C)nc1 | -8.005 | -8.424 | 12.35 | 21.92 | 6.316
CCC1=N[C@@]2(CC[C@@H]3CN(S(=O)(=O)N(C)C)C[C@@H]32)C(=O)N1CC(C)C | -8.914 | -0.1129 | 1.394 | 14.56 | 5.435
COc1ccc2c(OCC(=O)NC(C)(C)C)ccnc2c1 | -5.436 | 3.838 | 5.696 | 18.07 | 1.22
CC(C)c1nc2c(n1C)CCN(CCS(=O)(=O)c1ccccc1)C2 | 2.462 | -35.76 | - | 22.86 | 5.195
Cc1nn(C)c(C)c1C1CCCN1C(=O)CCCNc1ncccn1 (stereo not drawn) | -3.589 | -13.39 | 4.54 | -88.46 | 4.571
CSCC[C@@H](CO)NC(=O)c1sc(-c2ccc(Cl)cc2)nc1C | -4.773 | -2.024 | -0.5051 | 5.263 | 1.754
CSc1ccc(C(=O)C2CCCN(C(=O)CCn3cnnn3)C2)cc1 (stereo not drawn) | -2.981 | 17.38 | -0.3236 | -1.176 | 3.015
COc1cc(OC)c(C2CC(=O)Oc3cc(C)[nH]c(=O)c32)c(OC)c1 (stereo not drawn) | -1.764 | -11.87 | 1.272 | 17.95 | 2.41
Cc1nc(CN2C(=O)CC3(CCN(C(N)=O)CC3)c3ccccc32)cs1 | -10.24 | -7.078 | - | 8.547 | 6.135
CCn1nc(C)cc1C(=O)N1CCC(Nc2ccc(C)nn2)CC1 | -3.784 | -3.392 | 3.201 | 2.469 | 4.294
Cc1cc(N2CCCC2)nc(N(C)CCO)c1C#N | -2.504 | -3.107 | -4.009 | 14.29 | 9.278
O=C(N[C@@H]1CN(c2ncc(F)cn2)[C@@H]2COC[C@@H]21)c1cscn1 | 0.2907 | -23.97 | -0.4831 | 7.071 | 4.516
NC(=O)c1nc(CC(=O)Nc2cccc(C(F)(F)F)c2)no1 | -8.821 | -7.834 | -4.427 | 7.865 | 6.736
COc1ccc(Cl)cc1CNCCCn1ccnc1 | 8.172 | -27.05 | -21.63 | 26.67 | 0
O=C(C1CCC1)N1CCC(C2CCN(Cc3ccc(Cl)cc3)C2)CC1 (stereo not drawn) | -14.96 | -39.88 | 5.134 | 27.4 | 15.3
CSc1cc2c(cc1NC(=O)NCC1CCOC1)OCCO2 (stereo not drawn) | -3.97 | -4.74 | -4.637 | 9.091 | 4.348
COc1cccc(-c2ncc3c(n2)N(C)CCN(CCN(C)C)C3=O)c1 | 2.789 | 19.58 | 8.313 | 22.86 | 11.3
c1cnnc(N[C@@H]2CC[C@@H]3CN(Cc4ccc5[nH]ccc5c4)C[C@@H]32)c1 | -25.2 | - | 12.33 | 6.711 | 6
Cc1nc(NCc2ccco2)nc2c1COCC21CCNC1 (stereo not drawn) | 7.926 | -28.41 | -45 | 12.82 | -21.93
Cc1ccc(OCCC(=O)NCCCN2CCCC2=O)c(C)c1 | 3.381 | -22.09 | -0.9724 | 0 | 6.061
CC(C)c1cc(NCC2(Cn3cccn3)CC2)nc(N)n1 | -18.73 | -1.021 | 0.8783 | 10.17 | 7.317
Cc1ccc(C(=O)NCCN2CCOCC2)cc1N(C)S(C)(=O)=O | 4.196 | -0.542 | -2.826 | 0 | 0
CC(NC(=O)Cn1cccnc1=O)c1ccc(OC(F)(F)F)cc1 (stereo not drawn) | 4.623 | -34.18 | 6.198 | 14.67 | 1.734
O=C(N1CCOCC1)N1C(CN2CCOCC2)[C@]2(O)CC[C@H]1CC2 (stereo partly drawn) | 1.071 | 0.9822 | -4.049 | 0 | 4.624
CS(=O)(=O)Cc1nc(CCc2ccccc2)nn1-c1ccccn1 | -2.469 | -42.34 | - | 9.859 | 4.459
CN1CC(Oc2ccccc2)=NC(SCC(=O)Nc2ccccc2Cl)=N1 | 5.718 | -43.63 | 10.18 | 23.53 | 4.762
O=S(=O)(c1c(Cl)nc2sccn12)N1CCCC2(CCNC2)C1 (stereo not drawn) | -9.428 | 0.1391 | -0.7453 | -23.81 | 5.641
CC(C)c1nc(CN(C)C(=O)CNS(=O)(=O)c2cccs2)no1 | 6.345 | 4.063 | 6.143 | 10.32 | 4.706
Cc1cc2ncc(CN(C)C)c(C3CCN(C)CC3)n2n1 | 13.84 | 0.7687 | 1.435 | 2.878 | 4.215
COC1CCN(C(=O)COC(C)=O)CC(=O)N(C)c2ccccc21 (stereo not drawn) | 1.604 | 10.61 | 0.2421 | 6.122 | 8.989
c1cnc(N2CCCC3(CCN(Cc4ccncc4)C3)C2)nc1 (stereo not drawn) | 1.553 | -30.92 | 7.712 | 15.04 | 1.657
N#Cc1ccc(CNC(=O)C2=NN(c3ccccc3)C(=O)CN2)cc1 | 4.95 | -15.03 | -34.33 | 16.39 | 8.14
CCc1cc(CNC(=O)N(C2CC2)C(C)c2ccco2)on1 (stereo not drawn) | -0.9992 | -25.81 | -2.297 | -11.29 | 4.545
CCN1CC[C@]2(CN(C(=O)[C@H]3CCCO3)C[C@H]2c2ccccc2)C1=O | -2.717 | -39.64 | -5.417 | 16.24 | 5.882
CC(=O)NCC(=O)N1CCc2[nH]c(-c3ccccc3)nc2C1 | -16.41 | -21.65 | 4.069 | 11.29 | -0.8772
CN1CCN(Cc2nnc(C3CCN(C4CCCCC4)CC3)n2C)CC1 | -5.503 | -4.146 | 4.43 | 13.25 | 3.659
Oc1ccc(N2CCN(Cc3cc4c(cc3Br)OCCO4)CC2)cc1 | 6.466 | 2.065 | -5.485 | 16.35 | 8.943
Cc1cc(NC(=O)c2ccc(N3CCOCC3)c(C)c2)[nH]n1 | -1.376 | 10.01 | 5.242 | -2.632 | 7.263
O=C(NCC1CCS(=O)(=O)C1)c1ccco1 (stereo not drawn) | 15.95 | -2.311 | 10.1 | 18.09 | 12.12
N#Cc1cc(F)ccc1NCC1CCS(=O)(=O)CC1 | -4.839 | -20.39 | 2.314 | 18.28 | 5.357
COc1c(C2CCCN2C(=O)c2scnc2C)c(C)nn1C (stereo not drawn) | 10.18 | -1.49 | -0.129 | 10.43 | 2.299

For reference, 3 entries once more:

CN1CC(Oc2ccccc2)=NC(SCC(=O)Nc2ccccc2Cl)=N1 read A: 5.718%; B: -43.63%; C: 10.18%; D: 23.53%; E: 4.762%.
Cc1cc(N2CCCC2)nc(N(C)CCO)c1C#N read A: -2.504%; B: -3.107%; C: -4.009%; D: 14.29%; E: 9.278%.
c1cnc(N2CCCC3(CCN(Cc4ccncc4)C3)C2)nc1 (stereo not drawn) read A: 1.553%; B: -30.92%; C: 7.712%; D: 15.04%; E: 1.657%.